# The supplement of paper PMC10032668
# Chains of the proteins cited; added tags and fusions are not shown.
# SRPK1, Q96SB4, UniProt Q96SB4, whole entry: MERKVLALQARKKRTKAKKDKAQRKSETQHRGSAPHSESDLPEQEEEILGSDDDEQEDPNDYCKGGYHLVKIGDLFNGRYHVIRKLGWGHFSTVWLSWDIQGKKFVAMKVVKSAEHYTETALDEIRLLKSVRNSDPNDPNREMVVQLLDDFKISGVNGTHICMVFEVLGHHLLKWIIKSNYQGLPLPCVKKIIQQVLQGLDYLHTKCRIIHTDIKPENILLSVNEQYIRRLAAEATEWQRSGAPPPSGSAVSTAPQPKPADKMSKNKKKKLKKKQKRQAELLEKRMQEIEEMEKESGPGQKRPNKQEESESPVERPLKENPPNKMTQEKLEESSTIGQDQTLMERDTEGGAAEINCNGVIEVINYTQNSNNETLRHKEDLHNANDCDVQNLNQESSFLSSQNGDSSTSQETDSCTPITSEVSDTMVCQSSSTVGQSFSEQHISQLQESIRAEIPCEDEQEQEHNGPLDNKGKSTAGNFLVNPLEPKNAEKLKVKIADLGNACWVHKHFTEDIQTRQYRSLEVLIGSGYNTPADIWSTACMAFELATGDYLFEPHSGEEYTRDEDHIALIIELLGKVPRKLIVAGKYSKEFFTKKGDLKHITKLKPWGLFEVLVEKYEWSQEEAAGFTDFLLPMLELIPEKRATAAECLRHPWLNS
# NELFE, P18615, UniProt P18615, whole entry: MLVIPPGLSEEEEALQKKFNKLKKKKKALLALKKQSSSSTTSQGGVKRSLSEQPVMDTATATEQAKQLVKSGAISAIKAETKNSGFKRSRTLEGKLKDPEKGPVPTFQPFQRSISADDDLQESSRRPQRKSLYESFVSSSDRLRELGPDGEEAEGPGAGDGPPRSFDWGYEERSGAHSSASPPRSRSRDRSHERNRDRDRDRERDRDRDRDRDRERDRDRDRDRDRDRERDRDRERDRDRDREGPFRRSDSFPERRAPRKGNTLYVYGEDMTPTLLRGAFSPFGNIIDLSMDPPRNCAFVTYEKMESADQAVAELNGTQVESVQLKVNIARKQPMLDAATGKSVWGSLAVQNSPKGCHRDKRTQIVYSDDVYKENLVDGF
# EIF3D, O15371, UniProt O15371, whole entry: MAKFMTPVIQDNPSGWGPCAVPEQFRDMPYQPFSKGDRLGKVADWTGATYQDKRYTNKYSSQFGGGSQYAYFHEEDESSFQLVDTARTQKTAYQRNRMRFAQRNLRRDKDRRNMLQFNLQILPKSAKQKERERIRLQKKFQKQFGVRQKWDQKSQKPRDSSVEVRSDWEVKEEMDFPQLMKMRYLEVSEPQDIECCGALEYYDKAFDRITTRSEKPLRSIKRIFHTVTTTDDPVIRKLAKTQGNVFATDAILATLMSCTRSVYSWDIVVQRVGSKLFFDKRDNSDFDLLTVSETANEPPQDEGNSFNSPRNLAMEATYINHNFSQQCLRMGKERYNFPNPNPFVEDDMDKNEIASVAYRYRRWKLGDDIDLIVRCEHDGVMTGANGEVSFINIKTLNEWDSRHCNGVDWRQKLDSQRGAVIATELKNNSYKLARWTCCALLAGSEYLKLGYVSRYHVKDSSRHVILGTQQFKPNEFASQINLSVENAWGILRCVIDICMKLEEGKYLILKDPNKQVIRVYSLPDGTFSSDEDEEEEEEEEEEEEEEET
# TUBB2A, Q13885, UniProt Q13885, whole entry: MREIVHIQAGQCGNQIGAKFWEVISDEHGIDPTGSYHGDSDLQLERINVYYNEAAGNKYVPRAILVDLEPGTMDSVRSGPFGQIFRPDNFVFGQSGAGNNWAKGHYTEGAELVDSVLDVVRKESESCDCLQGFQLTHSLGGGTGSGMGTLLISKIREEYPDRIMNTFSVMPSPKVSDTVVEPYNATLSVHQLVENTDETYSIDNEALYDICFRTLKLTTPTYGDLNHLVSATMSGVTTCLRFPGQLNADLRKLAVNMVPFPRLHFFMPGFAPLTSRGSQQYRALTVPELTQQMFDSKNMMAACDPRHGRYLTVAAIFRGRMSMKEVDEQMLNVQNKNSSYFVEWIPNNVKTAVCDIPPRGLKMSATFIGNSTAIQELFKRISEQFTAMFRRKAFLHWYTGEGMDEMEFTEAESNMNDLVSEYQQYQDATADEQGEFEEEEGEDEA
# The list shows a part of the results. Only hits are listed; about a third recur on repeated control peptides.
# B1: RP11-432J24.5_2 (peptide)
# chain: SPADVAGPGLAMEKA
# B2: RP11-432J24.5_2 (peptide)
# chain: TGLSSFWEMHFASSR
# B3: MKKS (peptide)
# chain: LIHLGWYRIKSSPVF
# Experiments:
# Experiment in all cases: PRISMA enrichment of interactor (LFQ) in peptide spot vs all other peptide spots (log2 fold change); higher = stronger / more specific binding of the interactor to the peptide
# RPL10A, P62906 = target: RPL10A, P62906
# Procedure: (§1)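 PRISMA: 15-aa overlapping tiles (offset 8 aa) of 60 microproteins, plus SOS1/GLUT1 control peptides, were spot-synthesized on cellulose membranes in triplicate. Membranes were incubated with benzonase-treated HEK293T lysate, and bound proteins were identified by LC-MS/MS with LFQ. Enrichment is the log2 fold change of each protein in one spot versus all other spots. Only interactors passing the significance cutoff are listed.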
# SNX27, Q96L92 = target: SNX27, Q96L92
# Procedure: as §1
# SRPK1, Q96SB4 = target: SRPK1, Q96SB4
# Procedure: as §1
# THUMPD1, Q9NXG2 = target: THUMPD1, Q9NXG2
# Procedure: as §1
# TSR1, Q2NL82 = target: TSR1, Q2NL82
# Procedure: as §1
# UBAP2, Q5T6F2 = target: UBAP2, Q5T6F2
# Procedure: as §1
# XRN2, Q9H0D6 = target: XRN2, Q9H0D6
# Procedure: as §1
# YTHDF2, Q9Y5A9 = target: YTHDF2, Q9Y5A9
# Procedure: as §1
# AHCTF1, Q8WYP5 = target: AHCTF1, Q8WYP5
# Procedure: as §1
# ALYREF, Q86V81 = target: ALYREF, Q86V81
# Procedure: as §1
# BHMT, Q93088 = target: BHMT, Q93088
# Procedure: as §1
# CGN, Q9P2M7 = target: CGN, Q9P2M7
# Procedure: as §1
# CSDE1, O75534 = target: CSDE1, O75534
# Procedure: as §1
# EIF2D, P41214 = target: EIF2D, P41214
# Procedure: as §1
# GATA6, Q92908 = target: GATA6, Q92908
# Procedure: as §1
# NELFE, P18615 = target: NELFE, P18615
# Procedure: as §1
# NOP58, Q9Y2X3 = target: NOP58, Q9Y2X3
# Procedure: as §1
# NTMT1, Q9BV86 = target: NTMT1, Q9BV86
# Procedure: as §1
# NUP85, Q9BW27 = target: NUP85, Q9BW27
# Procedure: as §1
# PNO1, Q9NRX1 = target: PNO1, Q9NRX1
# Procedure: as §1
# PSPC1, Q8WXF1 = target: PSPC1, Q8WXF1
# Procedure: as §1
# PTGES3, Q15185 = target: PTGES3, Q15185
# Procedure: as §1
# TCAF1, Q9Y4C2 = target: TCAF1, Q9Y4C2
# Procedure: as §1
# AK2, P54819 = target: AK2, P54819
# Procedure: as §1
# COPS4, Q9BT78 = target: COPS4, Q9BT78
# Procedure: as §1
# CPNE3, O75131 = target: CPNE3, O75131
# Procedure: as §1
# DCAF13, Q9NV06 = target: DCAF13, Q9NV06
# Procedure: as §1
# DERPC, P0CG12 = target: DERPC, P0CG12
# Procedure: as §1
# EIF3D, O15371 = target: EIF3D, O15371
# Procedure: as §1
# MT-ATP6, P00846 = target: MT-ATP6, P00846
# Procedure: as §1
# NUP54, Q7Z3B4 = target: NUP54, Q7Z3B4
# Procedure: as §1
# POP1, Q99575 = target: POP1, Q99575
# Procedure: as §1
# PSRC1, Q6PGN9 = target: PSRC1, Q6PGN9
# Procedure: as §1
# PTPN1, P18031 = target: PTPN1, P18031
# Procedure: as §1
# SETD7, Q8WTS6 = target: SETD7, Q8WTS6
# Procedure: as §1
# TUBB2A, Q13885 = target: TUBB2A, Q13885
# Procedure: as §1
binder,measurement,setting,value
B1,PRISMA enrichment of interactor (log2),"RPL10A, P62906",4.78
same,PRISMA enrichment of interactor (log2),"SNX27, Q96L92",4.62
same,PRISMA enrichment of interactor (log2),"SRPK1, Q96SB4",4.69
same,PRISMA enrichment of interactor (log2),"THUMPD1, Q9NXG2",4.18
same,PRISMA enrichment of interactor (log2),"TSR1, Q2NL82",4.99
same,PRISMA enrichment of interactor (log2),"UBAP2, Q5T6F2",4.46
same,PRISMA enrichment of interactor (log2),"XRN2, Q9H0D6",4.15
same,PRISMA enrichment of interactor (log2),"YTHDF2, Q9Y5A9",4.55
B2,PRISMA enrichment of interactor (log2),"AHCTF1, Q8WYP5",5.89
same,PRISMA enrichment of interactor (log2),"ALYREF, Q86V81",9.66
same,PRISMA enrichment of interactor (log2),"BHMT, Q93088",4.61
same,PRISMA enrichment of interactor (log2),"CGN, Q9P2M7",6.87
same,PRISMA enrichment of interactor (log2),"CSDE1, O75534",7.47
same,PRISMA enrichment of interactor (log2),"EIF2D, P41214",4.89
same,PRISMA enrichment of interactor (log2),"GATA6, Q92908",4.9
same,PRISMA enrichment of interactor (log2),"NELFE, P18615",4.48
same,PRISMA enrichment of interactor (log2),"NOP58, Q9Y2X3",4.89
same,PRISMA enrichment of interactor (log2),"NTMT1, Q9BV86",5.83
same,PRISMA enrichment of interactor (log2),"NUP85, Q9BW27",5.69
same,PRISMA enrichment of interactor (log2),"PNO1, Q9NRX1",6.66
same,PRISMA enrichment of interactor (log2),"PSPC1, Q8WXF1",6.76
same,PRISMA enrichment of interactor (log2),"PTGES3, Q15185",4.78
same,PRISMA enrichment of interactor (log2),"TCAF1, Q9Y4C2",4.74
B3,PRISMA enrichment of interactor (log2),"AHCTF1, Q8WYP5",5.72
same,PRISMA enrichment of interactor (log2),"AK2, P54819",5.83
same,PRISMA enrichment of interactor (log2),"COPS4, Q9BT78",4.65
same,PRISMA enrichment of interactor (log2),"CPNE3, O75131",6.87
same,PRISMA enrichment of interactor (log2),"DCAF13, Q9NV06",5.1
same,PRISMA enrichment of interactor (log2),"DERPC, P0CG12",4.34
same,PRISMA enrichment of interactor (log2),"EIF3D, O15371",5.39
same,PRISMA enrichment of interactor (log2),"MT-ATP6, P00846",4.67
same,PRISMA enrichment of interactor (log2),"NUP54, Q7Z3B4",4.77
same,PRISMA enrichment of interactor (log2),"POP1, Q99575",5.95
same,PRISMA enrichment of interactor (log2),"PSRC1, Q6PGN9",8.07
same,PRISMA enrichment of interactor (log2),"PTPN1, P18031",4.71
same,PRISMA enrichment of interactor (log2),"SETD7, Q8WTS6",5.45
same,PRISMA enrichment of interactor (log2),"TUBB2A, Q13885",6.89

# Two entries from above in a different format:
binder | measurement | setting | value
B1 | PRISMA enrichment of interactor (log2) | RPL10A, P62906 | 4.78
B3 | PRISMA enrichment of interactor (log2) | TUBB2A, Q13885 | 6.89
